# PubChem BioAssay AID493246 – Drosophila RNAi Screening Center | 2011
# Test: 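Genome-wide search for dsRNAs that reduce cell number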 (primary screen)
# System: Drosophila Kc and S2R+ cells
# Knock-down reagent: long dsRNA against Drosophila genes
# Detection: 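Raw, unnormalised count of remaining cells in each well; per-plate z-scores of cell number underlie the calls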
# Direction: Kc cell number and S2R+ cell number: higher = more cells remaining
# Rule for the call: 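Active when the per-plate z-score of cell number is 3 or more in the direction of fewer cells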
# The screen tested about 21,000 reagents; below is an unselected part of those that have a named target and a result. Over the whole deposit, 429 (2%) got an active call. 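Values are raw and not normalised between plates; calls rest on per-plate z-scores that were not deposited.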 Reagents against one gene are numbered here. Names joined by + are all predicted targets of the reagent. Reagent sequences are not shown. Not given: the amount of reagent, the time to read-out.
"Kc cell number, rep 1","Kc cell number, rep 2","S2R+ cell number, rep 1","S2R+ cell number, rep 2",outcome,gene,reagent
1.54e6,1.57e6,1.10e6,1.21e6,inactive,pHCl-2 (GeneID 43703),1
1.44e6,1.40e6,1.00e6,1.14e6,inactive,CG34268 (GeneID 5740141),1
1.16e6,1.13e6,1.04e6,1.15e6,inactive,Acsx4 (GeneID 42355),1
1.46e6,1.49e6,1.06e6,1.14e6,inactive,CG15548 (GeneID 43667),1
1.47e6,1.50e6,1.06e6,1.24e6,inactive,robo3 (GeneID 33314),1
1.52e6,1.67e6,9.82e5,1.13e6,inactive,robo3 (GeneID 33314),2
1.50e6,1.54e6,1.06e6,1.22e6,inactive,robo3 (GeneID 33314),3
1.50e6,1.44e6,1.06e6,1.15e6,inactive,CG6294 + CG6299,1
1.50e6,1.72e6,1.20e6,1.28e6,inactive,Mkk4 (GeneID 41020),1
1.56e6,1.60e6,1.15e6,1.30e6,inactive,CG1494 (GeneID 33102),1
1.38e6,1.45e6,1.13e6,1.23e6,inactive,GrlHz (GeneID 37648),1
1.56e6,1.60e6,1.12e6,1.27e6,inactive,Parp16 (GeneID 36841),1
1.32e6,1.42e6,1.29e6,1.32e6,inactive,CG6149 (GeneID 39277),1
1.50e6,1.54e6,1.25e6,1.32e6,inactive,vlc (GeneID 46078),1
1.15e6,1.19e6,7.16e5,8.33e5,active,CG15628 (GeneID 33681),1
1.47e6,1.40e6,1.19e6,1.33e6,inactive,CG15628 (GeneID 33681),2
1.44e6,1.57e6,1.22e6,3.06e5,inactive,CG1421 (GeneID 35432),1
1.75e6,1.68e6,1.40e6,1.51e6,inactive,mtTFB2 (GeneID 41228),1
1.68e6,1.68e6,1.25e6,1.37e6,inactive,CG9471 (GeneID 41197),1
1.32e6,1.70e6,1.05e6,1.05e6,inactive,Ttc1 (GeneID 41993),1
1.61e6,1.54e6,1.08e6,1.14e6,inactive,CG15249 (GeneID 31924),1
1.56e6,1.64e6,1.34e6,1.36e6,inactive,Or59b (GeneID 37715),1
1.58e6,1.56e6,1.03e6,1.18e6,inactive,GCS2alpha (GeneID 49953),1
1.42e6,1.51e6,1.24e6,1.28e6,inactive,neur (GeneID 41085),1
1.18e6,1.26e6,1.13e6,1.26e6,inactive,CG9588 (GeneID 41672),1
1.51e6,1.50e6,1.03e6,1.10e6,inactive,CG13403 (GeneID 32366),1
1.50e6,1.52e6,1.28e6,1.21e6,inactive,CG7252 (GeneID 39353),1
1.37e6,1.41e6,1.15e6,1.23e6,inactive,Plzf (GeneID 34622),1
1.57e6,1.68e6,1.24e6,1.54e6,inactive,Oga (GeneID 42518),1
1.47e6,1.49e6,1.18e6,1.26e6,inactive,CG3448 (GeneID 39094),1
1.49e6,1.48e6,1.05e6,1.13e6,inactive,CG4116 (GeneID 31291),1
1.46e6,1.50e6,1.07e6,1.12e6,inactive,gish (GeneID 49701),1
1.64e6,1.84e6,9.73e5,1.19e6,inactive,tub (GeneID 40554),1
1.44e6,1.44e6,1.28e6,1.22e6,inactive,CG18418 (GeneID 38572),1
1.37e6,1.40e6,1.19e6,1.14e6,inactive,hpo (GeneID 37247),1
1.62e6,1.53e6,1.20e6,1.32e6,inactive,CG13989 (GeneID 33869),1
1.53e6,1.65e6,1.20e6,1.30e6,inactive,CG9801 (GeneID 41044),1
1.44e6,1.45e6,1.03e6,1.13e6,inactive,CG34034 (GeneID 3885584),1
5.41e5,,8.23e5,,inactive,CG1703 (GeneID 32112),1
1.49e6,1.44e6,1.04e6,1.37e6,inactive,CG45067 (GeneID 38371),1
1.20e6,1.37e6,7.27e5,5.47e5,inactive,Elba3 (GeneID 33670),1
1.50e6,1.47e6,1.03e6,1.12e6,inactive,CG15579 (GeneID 50380),1
1.44e6,1.39e6,1.09e6,1.23e6,inactive,CG14043 (GeneID 33714),1
1.57e6,1.58e6,1.07e6,1.20e6,inactive,CG3690 (GeneID 31047),1
1.58e6,1.55e6,1.07e6,1.17e6,inactive,CG3690 (GeneID 31047),2
1.21e6,1.43e6,4.63e5,5.17e5,inactive,CG9109 (GeneID 33844),1
1.22e6,1.26e6,1.10e6,1.24e6,inactive,CAH8 (GeneID 42625),1
1.38e6,1.34e6,1.02e6,1.10e6,inactive,CG31233 (GeneID 42557),1
1.31e6,1.36e6,1.01e6,1.07e6,inactive,meso18E (GeneID 53448),1
1.72e6,1.76e6,1.14e6,1.24e6,inactive,X11L (GeneID 252671),1
1.54e6,1.40e6,1.11e6,1.23e6,inactive,X11L (GeneID 252671),2
1.51e6,1.59e6,1.31e6,1.35e6,inactive,Cyp6a14 (retired record) (GeneID 8674017),1
1.36e6,1.47e6,9.37e5,8.47e5,inactive,drosha (GeneID 35747),1
1.57e6,1.62e6,1.44e6,1.17e6,inactive,CG7565 (GeneID 38893),1
1.65e6,1.68e6,1.24e6,1.39e6,inactive,Syngr (GeneID 36533),1
1.43e6,1.57e6,1.13e6,1.19e6,inactive,Ste:CG33238 + Ste:CG33241 + Ste:CG33236 + 11 more,1
1.44e6,1.50e6,1.07e6,1.21e6,inactive,Ste:CG33238 + Ste:CG33241 + Ste:CG33236 + 11 more,2
1.73e6,1.67e6,1.08e6,1.31e6,inactive,CG12637 (GeneID 31996),1
1.69e6,1.72e6,1.31e6,3.45e5,inactive,ppk13 (GeneID 3346226),1

A portion of the results above, for reference:
"Kc cell number, rep 1","Kc cell number, rep 2","S2R+ cell number, rep 1","S2R+ cell number, rep 2",outcome,gene,reagent
1.47e6,1.50e6,1.06e6,1.24e6,inactive,robo3 (GeneID 33314),1
1.52e6,1.67e6,9.82e5,1.13e6,inactive,robo3 (GeneID 33314),2
1.50e6,1.54e6,1.06e6,1.22e6,inactive,robo3 (GeneID 33314),3
1.50e6,1.44e6,1.06e6,1.15e6,inactive,CG6294 + CG6299,1
1.50e6,1.72e6,1.20e6,1.28e6,inactive,Mkk4 (GeneID 41020),1
1.56e6,1.60e6,1.15e6,1.30e6,inactive,CG1494 (GeneID 33102),1
1.38e6,1.45e6,1.13e6,1.23e6,inactive,GrlHz (GeneID 37648),1
1.56e6,1.60e6,1.12e6,1.27e6,inactive,Parp16 (GeneID 36841),1
1.32e6,1.42e6,1.29e6,1.32e6,inactive,CG6149 (GeneID 39277),1
